Test results taken from patent US6635648B2, “Combination therapy using sympathetic nervous system antagonists and endothelin antagonists” (Queen's University at Kingston, priority 2000, dated 2003).
At least one compound was matched to its structure with a doubt left. Peptide text beside a SMILES is read from it.

Assay: NO-selectivity of depressor responses before and after maximal NOS blockade with L-NAME
Assay type: in vivo, rat
Protocol: Determination of MAP: Three days after surgery, MAP was recorded (PowerLab/8s DAS, ADInstruments, Milford, Mass.). […] An equilibration period of at least 1 hour was allowed prior to any experimentation to establish a steady baseline. […] Mean arterial pressure (MAP) and heart rate (HR) were calculated as an average over five minutes for steady state conditions and 10 seconds for transient drug responses.
Hypersensitivity to NO-mimetics following NOS blockade is shown to be the result of a specific interaction between ET and depressor agents that target the NO pathway. To confirm the specificity of this interaction, dose responses to a variety of depressor agents targeting both NO-dependent and NO-independent pathways were performed before and after maximal NOS blockade with 100 mg/kg L-NAME. One dose of each depressor agent that decreased MAP by approximately 10 mmHg was chosen for analysis. The agents compared were SNP ([…]; 30 s infusion), 8-bromo-cGMP (8-Br-cGMP; 3000 mg/kg/min; cumulative from 30, 100, 300, 1000, 3000 dose response, 2 min infusion, 3 min between doses), bradykinin (30 mg/kg/min; 30 s infusion), PGE1 ([…]; cumulative dose response, 20 min/dose) and INE (0.2 mg/kg/min; 30 s infusion).

NC(N)=NCCC[C@H](NC(=O)[C@H](Cc1ccccc1)NC(=O)[C@@H]1CCCN1C(=O)[C@H](CO)NC(=O)[C@H](Cc1ccccc1)NC(=O)CNC(=O)[C@@H]1CCCN1C(=O)[C@@H]1CCCN1C(=O)[C@@H](N)CCCN=C(N)N)C(=O)O [Bradykinin, bradykinin] (H-RPPGFSPFR-OH)
Change in Depressor Response (after vs before 100 mg/kg L-NAME): ←→ | Δ MAP L-NAME 100 mg/kg (mmHg) (depressor agent after maximal NOS blockade with 100 mg/kg L-NAME): −17.39 ± 4.47 mmHg | Δ MAP Control (mmHg) (depressor agent before L-NAME): −12.14 ± 4.39 mmHg
